# Assay results: the supplement of paper PMC11732987, “Enantioselective OTUD7B fragment discovery through chemoproteomics screening and high-throughput optimisation” (Communications Chemistry, 2025)
# This is one part of the list. The data scatter; read single values as rough.
# Target: SARS1 C438 (UniProt Q5T5C7)
# Test: log2 mean competition ratio of IA-DTB cysteine labelling (DMSO/compound) (log2 ratio); higher = stronger cysteine engagement by compound
# Settings: 50 µM; treatment time: 4 h; cell line lysate: HEK293T
# Procedure: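 IA-DTB competitive cysteine chemoproteomics in HEK293T RIPA lysate. Lysates were treated with compound 29 or 30 at 50 or 200 µM for 4 h, then IA-DTB (500 µM, 1 h), trypsin-digested, NeutrAvidin-enriched and analysed by diaPASEF. Competition ratio = intensity DMSO / intensity compound (n=4 treated, n=64 DMSO); binding: mean log2 CR ≥ 1 and p ≤ 0.05 plus QC filters. Target is the cysteine site.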
row,SMILES,log2 mean competition ratio
1,O=C(CCl)N[C@@H]1CCCc2ccccc21,-0.0785
2,O=C(CCl)N[C@H]1CCCc2ccccc21,-0.0892

# Same assay, conditions: 200 µM; treatment time: 4 h; cell line lysate: HEK293T
row,SMILES,log2 mean competition ratio
1,O=C(CCl)N[C@@H]1CCCc2ccccc21,-0.299
2,O=C(CCl)N[C@H]1CCCc2ccccc21,-0.247
